Data reported in the supplement of paper PMC9233669.
This sample is rich in variants without activity.

Tests used:
biotinyl-Val-oxazolone = assay: self-aminoacylation, catalytic enhancement (BVO) (fold over background); higher = more active; k-Seq, kA / k0A0; sequences stand for … in GGGAAUGGAUCCACAUCUACGAAUUC…UUCACUGCAGACUUGACGAAGCUG
Summary of the method: (§1)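 The uncatalyzed rate is the low-activity peak of a bimodal Gaussian fit, and catalytic enhancement is median kA divided by it. The kA values came from pseudo-first-order fits, with 1000 bootstraps, of per-sequence fraction reacted measured by streptavidin capture, triplicate qPCR and Illumina sequencing. Mutagenized RNA pools with a 21-nt variable region (0.43 μM) were reacted with each biotinyl-aminoacyl-oxazolone at 2–1250 μM in 50 μL HEPES/NaCl/KCl/MgCl2/CaCl2 buffer with 5% acetonitrile, pH 6.9–7.0, for 90 minutes at room temperature.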

biotinyl-Ile-oxazolone = assay: self-aminoacylation, catalytic enhancement (BIO) (fold over background); higher = more active; k-Seq, kA / k0A0; sequences stand for … in GGGAAUGGAUCCACAUCUACGAAUUC…UUCACUGCAGACUUGACGAAGCUG
Summary of the method: as §1

biotinyl-Phe-oxazolone = assay: self-aminoacylation, catalytic enhancement (BFO) (fold over background); higher = more active; k-Seq, kA / k0A0; sequences stand for … in GGGAAUGGAUCCACAUCUACGAAUUC…UUCACUGCAGACUUGACGAAGCUG
Summary of the method: as §1

biotinyl-Leu-oxazolone = assay: self-aminoacylation, catalytic enhancement (BLO) (fold over background); higher = more active; k-Seq, kA / k0A0; sequences stand for … in GGGAAUGGAUCCACAUCUACGAAUUC…UUCACUGCAGACUUGACGAAGCUG
Summary of the method: as §1

biotinyl-Trp-oxazolone = assay: self-aminoacylation, catalytic enhancement (BWO) (fold over background); higher = more active; k-Seq, kA / k0A0; sequences stand for … in GGGAAUGGAUCCACAUCUACGAAUUC…UUCACUGCAGACUUGACGAAGCUG
Summary of the method: as §1

biotinyl-Met-oxazolone = assay: self-aminoacylation, catalytic enhancement (BMO) (fold over background); higher = more active; k-Seq, kA / k0A0; sequences stand for … in GGGAAUGGAUCCACAUCUACGAAUUC…UUCACUGCAGACUUGACGAAGCUG
Summary of the method: as §1

Sequence	self-aminoacylation (biotinyl-Val-oxazolone)	self-aminoacylation (biotinyl-Ile-oxazolone)	self-aminoacylation (biotinyl-Phe-oxazolone)	self-aminoacylation (biotinyl-Leu-oxazolone)	self-aminoacylation (biotinyl-Trp-oxazolone)	self-aminoacylation (biotinyl-Met-oxazolone)
AUGCCCCUAGGUCAUCGGGUG [Fam2.2 aminoacylation ribozyme variant]	5.39	5.52	63.9	11.1	7.6	8.48
AUGUGUGCUAAUAGUCGCAAG [Fam3.1 aminoacylation ribozyme variant]	1.37	1.57	3.53	1.36	1.95	1.2
AUGUUUGCUUAUAGUCGCAAG [Fam3.1 aminoacylation ribozyme variant]	1.25	1.6	1.57	1.25	1.59	1.52
AUUAAACUGGUCAUCGAGUGA [Fam2.1 aminoacylation ribozyme variant]	2.42	2.71	4.94	4.35	6.94	4.15
AUUAACCUAGGUCAUCGGGUC [Fam2.2 aminoacylation ribozyme variant]	1.23	1.09	0.858	1.15	0.729	1.58
AUUAACUUGGUCAUCGAGUGA [Fam2.1 aminoacylation ribozyme variant]	2.48	2.9	3.99	4.16	4.83	3.67
AUUACACUGGUCAUCGACUGA [Fam2.1 aminoacylation ribozyme variant]	0.965	1	1.11	0.807	0.546	0.596
AUUACACUGGUCAUCGAGUGG [Fam2.1 aminoacylation ribozyme variant]	1.16	1.3	1.26	1.72	1.2	1.89
AUUACCCAGGUCAUCGAGUCA [Fam2.1 aminoacylation ribozyme variant]	1.02	0.823	0.818	0.858	0.484	0.771
AUUACCCCGGUCAUCGACUGA [Fam2.1 aminoacylation ribozyme variant]	1.11	1.01	0.534	0.802	0.385	0.625
AUUACCCCGGUCAUCGAGCGA [Fam2.1 aminoacylation ribozyme variant]	1.71	1.32	1.22	1.17	1.45	1.61
AUUACCCCGGUCAUCGAGUGU [Fam2.1 aminoacylation ribozyme variant]	1.87	1.56	9.98	2.45	3.57	2.58
AUUACCCGGGUCAGCGAGUGA [Fam2.1 aminoacylation ribozyme variant]	5.24	5.75	55.5	7.97	10.2	8.03
AUUACCCGGGUCAUCGUGUGA [Fam2.1 aminoacylation ribozyme variant]	3.17	2.6	39	5.65	5.65	4.88
AUUACCCUAGUCAUCGAUUGA [Fam2.1 aminoacylation ribozyme variant]	0.808	0.749	0.688	0.59	0.993	0.741
AUUACCCUAGUCAUUGAGUGA [Fam2.1 aminoacylation ribozyme variant]	3.86	3.69	25.9	6.93	9.31	6.69
AUUACCCUCGUCAUCGAGCGA [Fam2.1 aminoacylation ribozyme variant]	1.12	1.29	0.457	1.51	0.625	1.41
AUUACCCUCGUCAUCGAGGGA [Fam2.1 aminoacylation ribozyme variant]	1.14	1.34	1.45	1.64	1.22	1.37
AUUACCCUCGUCAUCGAGUCA [Fam2.1 aminoacylation ribozyme variant]	0.813	0.848	0.755	1.04	0.514	0.71
AUUACCCUCGUCAUCGAUUGA [Fam2.1 aminoacylation ribozyme variant]	0.779	0.735	0.539	0.671	0.823	0.788
AUUACCCUGCUCAUCGAGUAA [Fam2.1 aminoacylation ribozyme variant]	0.855	0.982	0.718	0.928	0.349	0.79
AUUACCCUGGACAUCGAGUGG [Fam2.1 aminoacylation ribozyme variant]	1.26	1.06	1.73	1.79	1.82	1.53
AUUACCCUGGCCAUCGAGUGC [Fam2.1 aminoacylation ribozyme variant]	0.908	0.727	1.01	0.769	1.32	1.36
AUUACCCUGGCCAUCGUGUGA [Fam2.1 aminoacylation ribozyme variant]	1.01	1.25	6.7	1.63	1.8	1.76
AUUACCCUGGGAAUCGAGUGA [Fam2.1 aminoacylation ribozyme variant]	3.29	2.78	26.8	5.93	4.59	5.72
AUUACCCUGGUAAUCGACUGA [Fam2.1 aminoacylation ribozyme variant]	0.823	0.689	0.42	0.539	0.623	0.475

Sequence	self-aminoacylation (biotinyl-Val-oxazolone)	self-aminoacylation (biotinyl-Ile-oxazolone)	self-aminoacylation (biotinyl-Phe-oxazolone)	self-aminoacylation (biotinyl-Leu-oxazolone)	self-aminoacylation (biotinyl-Trp-oxazolone)	self-aminoacylation (biotinyl-Met-oxazolone)
AUUACCCUGGUAAUCGAGUAA [Fam2.1 aminoacylation ribozyme variant]	1.43	1.39	0.906	1.14	0.945	1.32
AUUACCCUGGUAAUCGAUUGA [Fam2.1 aminoacylation ribozyme variant]	0.777	0.711	0.956	0.748	0.469	0.791
AUUACCCUGGUCAACGAAUGA [Fam2.1 aminoacylation ribozyme variant]	0.927	0.91	0.423	0.797	0.686	0.652
AUUACCCUGGUCAGCGAGUGU [Fam2.1 aminoacylation ribozyme variant]	2.41	2.49	15.4	3.85	4.47	3.7
AUUACCCUGGUCAUAGAUUGA [Fam2.1 aminoacylation ribozyme variant]	1.04	0.777	0.659	0.719	0.629	0.809
AUUACCCUGGUCAUCCAGUGC [Fam2.1 aminoacylation ribozyme variant]	1.71	1.59	5.75	2.19	1.89	1.65
AUUACCCUGGUCAUCGACUCA [Fam2.1 aminoacylation ribozyme variant]	0.608	0.596	0.552	0.503	0.472	0.51
AUUACCCUGGUCAUCGACUGG [Fam2.1 aminoacylation ribozyme variant]	0.708	0.746	0.639	0.997	1.69	0.524
AUUACCCUGGUCAUCGAGCAA [Fam2.1 aminoacylation ribozyme variant]	1.13	1.16	1.19	1.13	0.779	1.11
AUUACCCUGGUCAUGGACUGA [Fam2.1 aminoacylation ribozyme variant]	0.911	0.93	0.628	0.883	0.593	1.08
AUUACCCUGGUCAUUGAAUGA [Fam2.1 aminoacylation ribozyme variant]	0.831	0.911	1.09	0.773	0.557	0.834
AUUACCCUGGUCAUUGAGUUA [Fam2.1 aminoacylation ribozyme variant]	1.08	0.879	0.873	0.855	0.567	0.998
AUUACCCUGGUCGUCGACUGA [Fam2.1 aminoacylation ribozyme variant]	0.826	0.697	0.577	0.776	0.555	0.787
AUUACCCUGGUCGUCGAGUUA [Fam2.1 aminoacylation ribozyme variant]	0.988	1.16	0.846	0.953	0.786	0.987
AUUACCCUGGUCGUUGAGUGA [Fam2.1 aminoacylation ribozyme variant]	1.11	0.969	0.714	1.32	1.02	1.05
AUUACCCUGGUCUUCGAGUAA [Fam2.1 aminoacylation ribozyme variant]	1.22	1.22	0.72	1.15	0.723	1.14
AUUACCCUGGUCUUCGAGUUA [Fam2.1 aminoacylation ribozyme variant]	1.2	1.07	0.759	1.03	0.896	1.1
AUUACCCUGGUGAUCGAGGGA [Fam2.1 aminoacylation ribozyme variant]	1.32	1.23	0.823	1.21	1.47	1.73
AUUACCCUGGUGAUUGAGUGA [Fam2.1 aminoacylation ribozyme variant]	3.55	3.55	57.1	7.64	9.23	7.66
AUUACCCUGGUUAUCGAGCGA [Fam2.1 aminoacylation ribozyme variant]	1.02	1.02	0.773	1.4	1.19	0.97
AUUACCCUGUUCAUCGAGUAA [Fam2.1 aminoacylation ribozyme variant]	1.44	1.38	1.26	1.15	0.537	1.3
AUUACCCUGUUCAUCGAGUGC [Fam2.1 aminoacylation ribozyme variant]	0.955	0.827	0.779	0.936	0.949	0.904
AUUACCGUGGUCAUCUAGUGA [Fam2.1 aminoacylation ribozyme variant]	3.82	3.29	31.2	6.26	7.82	6.98
AUUACCUUGGUCAUCGAGUGU [Fam2.1 aminoacylation ribozyme variant]	2.37	2.19	3.39	3.59	3.8	3.47
AUUACCUUGGUCGUCGAGUGA [Fam2.1 aminoacylation ribozyme variant]	1.02	1.03	1.55	0.851	0.907	1.09
